# Results: patent US8314140B2, “4-hydroxythiobenzamide derivatives of drugs” (Antibe Therapeutics Inc., priority 2006, dated 2012)
# For at least one compound, name, drawing or mass did not settle the structure.
# System: human platelet cAMP
# Assay: Human platelet cAMP concentrations
# Format: cell-based
# Conditions: 3-100 μM, 10 minutes, IBMX 0.5 mM; versus vehicle; FIG. 21
# Protocol: Platelet-rich plasma (PRP) was prepared as above. Aliquots of 400 μL of PRP were placed in glass tubes which contained IBMX (isobutyl-1-methylxanthine; 0.5 mM), an non-selective phosphodiesterase inhibitor. […] As a positive control, some aliquots of platelets were treated with forskolin (10 μM), a known stimulus of adenylate cyclase. Ten minutes later, the samples of PRP were centrifuged at 9,000 g for 2 min and the supernatant was discarded. The pellet was resuspended in buffer, sonicated for 2 min, then cAMP concentrations were determined using a specific enzyme-linked immunosorbent assay (Cayman Chemical Co., Ann Arbor, Mich., USA). Experiments were repeated 4-6 times for each concentration of each drug.
compound,measurement,value
"CCC(C)(C)C(=O)O[C@H]1C[C@@H](C)C=C2C=C[C@H](C)[C@H](CC[C@@H]3C[C@@H](O)CC(=O)O3)[C@H]21 [Simvastatin, simvastatin, reference compound]",platelet cAMP,only significantly increased platelet cAMP at the highest concentration (100 μM)
